Measured values taken from patent publication US20210087620A1, “Target Gene Identifying Method for Tumor Treatment” (Samsung Life Public Welfare Foundation Samsung Life Public …, priority 2017, published 2021).
At least one compound was matched to its structure with a doubt left.

Key:
[1] = tested on: right tumor-derived cells of the GBM9 patient; test: PDC-based chemical screening (ATP cell viability, dose-response AUC), right tumor; set-up: species or system human; conditions: GBM9 right tumor PDCs
Experimental: (§1) According to one embodiment, the measuring of drug sensitivity of each sample by subjecting the multiple samples to drug screening may include obtaining a cell viability curve of each sample according to a dose of each drug; and calculating an area under the curve.
(§2) GBM9 patient had tumors in the right and left frontal lobes of the brain, respectively. In this regard, 40 kinds of anticancer agents were administered to samples collected from the respective tumors, and tumor cell viability was examined.
(§3) When a curve of tumor cell viability vs drug dose is plotted, an area under the curve (AUC) may be used as an index of drug sensitivity. […]
(§4) PDCs grown in serum-free medium were seeded in 384 well plates at a density of 500 cells per well in duplicate or triplicate. […] After 6 days of incubation at 37° C. in a 5% CO2 humidified incubator, cell viability was analyzed using an adenosine triphosphate (ATP) monitoring system based on firefly luciferase (ATPLite™ 1step, PerkinElmer). At this time, viable cells were estimated using an EnVision Multilabel Reader (PerkinElmer). […] DRC fitting was performed using GraphPad Prism 5 (GraphPad) and evaluated by measuring an area under the curve (AUC) of dose response curve. After normalization, best-fit lines were determined and the AUC value of each curve was calculated using a GraphPad Prism. […]

[2] = tested on: left tumor-derived cells of the GBM9 patient; test: PDC-based chemical screening (ATP cell viability, dose-response AUC), left tumor; set-up: species or system human; conditions: GBM9 left tumor PDCs
Experimental: as §1, §2, §3, §4

[3] = 6 days, 20 μM to 4.88 nM, FIG. 6

Row | Compound | area under the curve (AUC) of cell viability vs dose (low AUC = high drug sensitivity) ([1]; FIG. 6, FIG. 7) | survival rate of tumor cells with increasing drug dose [2, 3] | area under the curve (AUC) of cell viability vs dose (low AUC = high drug sensitivity) ([2]; FIG. 6, FIG. 7) | survival rate of tumor cells with increasing drug dose [1, 3]
1 | CN(C)C/C=C/C(=O)Nc1cc2c(Nc3ccc(F)c(Cl)c3)ncnc2cc1O[C@H]1CCOC1 [afatinib, Afatinib] | lower than that of the left tumor |  |  | 
2 | Cn1cnc2c(F)c(Nc3ccc(Br)cc3Cl)c(C(=O)NOCCO)cc21 [selumetinib, Selumetinib] |  | the survival rate of the left tumor greatly decreased | lower than that of the right tumor | the survival rate of the right tumor did not greatly decrease
